Assay results as given in article PMC4698301.
No constants are given. Whether binding was seen depends on the method and setting.

Protein sequences, listed by entry. Tags and fused reporters are not part of them.
UniProt Q16774: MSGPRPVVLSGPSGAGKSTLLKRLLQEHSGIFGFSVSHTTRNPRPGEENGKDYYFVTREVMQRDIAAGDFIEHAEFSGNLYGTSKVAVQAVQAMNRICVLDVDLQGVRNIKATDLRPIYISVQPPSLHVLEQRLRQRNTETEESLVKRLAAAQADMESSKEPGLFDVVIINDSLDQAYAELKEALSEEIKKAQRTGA

Key:
[1] = target: human guanylate kinase (human) (UniProt Q16774); assay: SAXS; synchrotron SAXS (cSAXS beamline X12SA, SLS); forward scattering I(0) compared between the open form (no ligand) and the completely closed forms (GMP + AMP-PNP, Ap5G, GMP + ADP); both purified
[2] = target: human guanylate kinase (human) (UniProt Q16774); assay: SEC; unliganded hGMPK; elution profile compared with standard proteins; both purified

human guanylate kinase (from UniProt Q16774 1-197) (enzyme)
binding [1]: no binding
binding [2]: no binding
